Data: patent US20150216171A1, “HERBICIDALLY ACTIVE BICYCLOARYL CARBOXYLIC ACID AMIDES” (BAYER CROPSCIENCE AG, priority 2012, published 2015)
Some entries share one result that the patent states for a list of compounds.

What was measured:
Format in all cases: in vivo
[1] = system: Polygonum convolvulus; assay: Pre-emergence herbicidal action against harmful plants; conditions: application rate 320 g/ha, scored visually after 3 weeks vs untreated controls
[2] = system: Cyperus serotinus; assay: as above; conditions: application rate 320 g/ha, scored visually after 3 weeks vs untreated controls
[3] = system: Veronica persica; assay: as above; conditions: application rate 320 g/ha, scored visually after 3 weeks vs untreated controls
[4] = system: Veronica persica; assay: Post-emergence herbicidal action against harmful plants; conditions: application rate 80 g/ha, scored visually after about 3 weeks vs untreated controls

Row | SMILES | efficacy against Veronica persica (herbicidal activity in percent) [3] | efficacy against Veronica persica (herbicidal action in percent) [4] | also measured
1 | Cc1c(C(=O)Nc2nnnn2C)ccc2ccsc12 [1-1, 7-methyl-N-(1-methyl-1H-tetrazol-5-yl)-1-benzothiophene-6-carboxamide] |  |  | efficacy against Polygonum convolvulus (herbicidal activity in percent) [1]: at least 80%
2 | Cc1c(C(=O)Nc2nnnn2C)ccc2c1S(=O)(=O)C=C2 [7-1] |  |  | efficacy against Cyperus serotinus (herbicidal activity in percent) [2]: at least 80%
3 | CCn1nnnc1NC(=O)c1cc(C)c2sccc2c1C [57-25] | at least 80% |  | 
4 | CCc1nonc1NC(=O)c1ccc2c(c1Cl)C=C(C)S2(=O)=O [60-19] | at least 80% | at least 80% | 
5 | COc1nonc1NC(=O)c1ccc2c(c1Cl)C=C(C)S2(=O)=O [60-51] | at least 80% |  | 
6 | CC1=Cc2c(ccc(C(=O)Nc3nonc3C(C)(C)C)c2Cl)S1(=O)=O [60-147] | at least 80% | at least 80% | 
